Measurements taken from PMC9020517.

The chains behind the UniProt entries cited, without tags or fusion partners. Residues count along the entry.
UniProt Q15843, residues 1-76: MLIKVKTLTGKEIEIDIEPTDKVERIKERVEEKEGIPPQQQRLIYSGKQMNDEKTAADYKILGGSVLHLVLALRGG
UniProt Q9UBN7: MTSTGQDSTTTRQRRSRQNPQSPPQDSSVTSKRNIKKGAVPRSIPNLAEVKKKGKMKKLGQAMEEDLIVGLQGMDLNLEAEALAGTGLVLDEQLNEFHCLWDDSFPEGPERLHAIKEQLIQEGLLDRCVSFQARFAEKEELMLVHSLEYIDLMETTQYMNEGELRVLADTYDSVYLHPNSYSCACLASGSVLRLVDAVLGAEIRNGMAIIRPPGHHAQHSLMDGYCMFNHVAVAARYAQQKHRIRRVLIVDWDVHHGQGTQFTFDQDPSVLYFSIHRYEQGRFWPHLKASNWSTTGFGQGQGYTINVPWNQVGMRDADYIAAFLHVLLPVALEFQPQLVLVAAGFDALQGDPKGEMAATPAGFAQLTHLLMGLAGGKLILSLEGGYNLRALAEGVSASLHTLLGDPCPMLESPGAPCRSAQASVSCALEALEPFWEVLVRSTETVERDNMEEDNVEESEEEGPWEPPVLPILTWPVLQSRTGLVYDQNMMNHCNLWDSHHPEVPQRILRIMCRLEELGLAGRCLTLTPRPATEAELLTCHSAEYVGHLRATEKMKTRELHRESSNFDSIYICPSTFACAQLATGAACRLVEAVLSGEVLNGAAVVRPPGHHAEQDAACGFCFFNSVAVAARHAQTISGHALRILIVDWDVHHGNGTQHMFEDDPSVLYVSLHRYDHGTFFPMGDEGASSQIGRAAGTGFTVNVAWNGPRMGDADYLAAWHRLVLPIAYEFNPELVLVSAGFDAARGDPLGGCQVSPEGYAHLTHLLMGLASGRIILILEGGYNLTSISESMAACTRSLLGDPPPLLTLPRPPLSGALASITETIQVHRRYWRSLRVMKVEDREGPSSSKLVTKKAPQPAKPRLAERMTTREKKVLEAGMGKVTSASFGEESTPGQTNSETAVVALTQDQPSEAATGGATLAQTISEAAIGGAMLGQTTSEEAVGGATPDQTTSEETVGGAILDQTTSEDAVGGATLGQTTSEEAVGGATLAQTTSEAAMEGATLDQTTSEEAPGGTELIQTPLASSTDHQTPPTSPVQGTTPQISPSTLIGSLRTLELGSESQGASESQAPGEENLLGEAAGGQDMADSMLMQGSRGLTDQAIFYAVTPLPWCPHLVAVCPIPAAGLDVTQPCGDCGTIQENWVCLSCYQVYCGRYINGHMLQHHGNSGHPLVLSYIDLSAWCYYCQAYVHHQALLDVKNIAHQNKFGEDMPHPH

Target: Strep-pNEDD8 (human NEDD8 1-76 phosphorylated at S65, N-terminal Strep-tag II) (human) (UniProt Q15843)
Assay: affinity purification with mass spectrometry; 25 µg Strep-Ub/NEDD8 variant as bait with 2.5 mg HEK293T or SHSY5Y whole-cell lysate, Strep-Tactin Superflow beads, 4 °C 3 h, 1x PBS, 2 mM MgCl2, 1 mM DTT, non-denaturing; empty beads as control; label-free quantitative MS, ANOVA (FDR 0.02, S0 1); only the target purified

binding: binds
Substance: HDAC6 (from UniProt Q9UBN7 1-1215)

Results are given in words; binding and its absence hold for the method and conditions named. Binding seen in cells or lysates may run through a third protein. A yes stands for co-enrichment or nearness to the bait. Other partners may have been found.
